This is an account of results in the supplement of paper PMC12067093, “Discovery and optimisation of a covalent ligand for TRIM25 and its application to targeted protein ubiquitination” (Chemical Science, 2025).

Chains of the proteins cited; added tags and fusions are not shown. Lines headed by an entry give the natural chain unless they say otherwise; changes in a name come on top.
UniProt Q15054: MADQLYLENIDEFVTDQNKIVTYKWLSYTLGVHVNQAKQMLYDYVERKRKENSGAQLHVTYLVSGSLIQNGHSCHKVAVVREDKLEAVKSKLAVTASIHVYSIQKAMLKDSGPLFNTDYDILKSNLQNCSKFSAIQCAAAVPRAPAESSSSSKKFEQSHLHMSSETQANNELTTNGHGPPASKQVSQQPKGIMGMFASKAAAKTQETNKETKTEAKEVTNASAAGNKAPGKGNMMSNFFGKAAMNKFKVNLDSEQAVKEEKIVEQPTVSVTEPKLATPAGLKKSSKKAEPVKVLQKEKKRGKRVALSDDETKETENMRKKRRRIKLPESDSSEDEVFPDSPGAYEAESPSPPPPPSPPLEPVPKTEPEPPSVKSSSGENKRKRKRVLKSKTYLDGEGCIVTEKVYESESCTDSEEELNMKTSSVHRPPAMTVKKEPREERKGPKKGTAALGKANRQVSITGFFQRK
UniProt Q9H2H8: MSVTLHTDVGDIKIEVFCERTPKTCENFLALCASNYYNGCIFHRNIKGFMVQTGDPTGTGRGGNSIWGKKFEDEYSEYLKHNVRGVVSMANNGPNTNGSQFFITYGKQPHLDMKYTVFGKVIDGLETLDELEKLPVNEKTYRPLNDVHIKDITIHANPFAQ
UniProt Q15063: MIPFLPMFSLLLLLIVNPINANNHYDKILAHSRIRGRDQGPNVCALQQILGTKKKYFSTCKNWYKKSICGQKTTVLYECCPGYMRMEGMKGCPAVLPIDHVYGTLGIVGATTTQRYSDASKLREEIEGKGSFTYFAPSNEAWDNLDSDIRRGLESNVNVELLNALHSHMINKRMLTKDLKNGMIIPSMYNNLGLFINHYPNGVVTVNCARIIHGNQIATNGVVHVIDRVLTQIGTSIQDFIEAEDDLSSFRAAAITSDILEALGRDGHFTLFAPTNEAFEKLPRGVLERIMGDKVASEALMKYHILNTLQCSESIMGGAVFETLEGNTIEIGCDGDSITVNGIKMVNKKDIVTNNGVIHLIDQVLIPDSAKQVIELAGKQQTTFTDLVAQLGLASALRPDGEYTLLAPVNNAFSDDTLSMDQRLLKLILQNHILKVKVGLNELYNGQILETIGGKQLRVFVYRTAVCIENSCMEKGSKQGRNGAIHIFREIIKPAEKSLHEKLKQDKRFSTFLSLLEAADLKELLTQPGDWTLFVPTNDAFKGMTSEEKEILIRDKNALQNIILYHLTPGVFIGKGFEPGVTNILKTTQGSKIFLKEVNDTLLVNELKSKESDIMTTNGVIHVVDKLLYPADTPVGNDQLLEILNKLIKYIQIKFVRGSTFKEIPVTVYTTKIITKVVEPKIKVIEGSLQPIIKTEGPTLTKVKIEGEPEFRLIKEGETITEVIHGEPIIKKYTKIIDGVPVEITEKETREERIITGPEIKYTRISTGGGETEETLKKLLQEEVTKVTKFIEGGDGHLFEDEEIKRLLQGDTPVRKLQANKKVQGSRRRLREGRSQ
UniProt P28340: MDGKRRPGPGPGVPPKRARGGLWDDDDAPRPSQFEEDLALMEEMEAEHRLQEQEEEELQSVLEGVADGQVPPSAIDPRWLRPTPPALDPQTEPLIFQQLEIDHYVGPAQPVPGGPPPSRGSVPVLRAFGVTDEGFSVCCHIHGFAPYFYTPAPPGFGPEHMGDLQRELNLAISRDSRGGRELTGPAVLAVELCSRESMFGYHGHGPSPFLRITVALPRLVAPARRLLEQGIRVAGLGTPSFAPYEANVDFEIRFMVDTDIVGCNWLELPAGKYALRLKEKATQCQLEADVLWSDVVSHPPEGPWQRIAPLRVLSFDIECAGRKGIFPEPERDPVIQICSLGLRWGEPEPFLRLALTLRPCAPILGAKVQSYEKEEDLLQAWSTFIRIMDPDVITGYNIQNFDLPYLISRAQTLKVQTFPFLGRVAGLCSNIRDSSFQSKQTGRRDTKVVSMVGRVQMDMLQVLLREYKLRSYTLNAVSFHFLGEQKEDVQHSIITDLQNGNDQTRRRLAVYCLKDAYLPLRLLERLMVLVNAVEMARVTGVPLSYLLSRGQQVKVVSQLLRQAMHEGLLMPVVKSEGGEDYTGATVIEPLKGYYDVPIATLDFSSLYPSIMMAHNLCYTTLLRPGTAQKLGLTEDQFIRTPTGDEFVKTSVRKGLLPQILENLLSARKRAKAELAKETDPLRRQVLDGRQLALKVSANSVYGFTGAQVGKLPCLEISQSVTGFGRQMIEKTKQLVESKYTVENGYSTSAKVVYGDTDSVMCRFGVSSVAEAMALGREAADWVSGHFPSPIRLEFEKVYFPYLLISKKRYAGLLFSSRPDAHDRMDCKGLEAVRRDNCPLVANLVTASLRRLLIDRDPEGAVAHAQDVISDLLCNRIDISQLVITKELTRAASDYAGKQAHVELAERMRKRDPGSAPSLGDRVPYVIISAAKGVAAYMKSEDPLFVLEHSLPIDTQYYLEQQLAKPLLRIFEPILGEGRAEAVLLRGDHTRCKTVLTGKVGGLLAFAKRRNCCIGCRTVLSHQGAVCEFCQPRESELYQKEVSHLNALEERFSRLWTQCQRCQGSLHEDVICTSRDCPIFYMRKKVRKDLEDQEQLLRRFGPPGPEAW
UniProt P16435: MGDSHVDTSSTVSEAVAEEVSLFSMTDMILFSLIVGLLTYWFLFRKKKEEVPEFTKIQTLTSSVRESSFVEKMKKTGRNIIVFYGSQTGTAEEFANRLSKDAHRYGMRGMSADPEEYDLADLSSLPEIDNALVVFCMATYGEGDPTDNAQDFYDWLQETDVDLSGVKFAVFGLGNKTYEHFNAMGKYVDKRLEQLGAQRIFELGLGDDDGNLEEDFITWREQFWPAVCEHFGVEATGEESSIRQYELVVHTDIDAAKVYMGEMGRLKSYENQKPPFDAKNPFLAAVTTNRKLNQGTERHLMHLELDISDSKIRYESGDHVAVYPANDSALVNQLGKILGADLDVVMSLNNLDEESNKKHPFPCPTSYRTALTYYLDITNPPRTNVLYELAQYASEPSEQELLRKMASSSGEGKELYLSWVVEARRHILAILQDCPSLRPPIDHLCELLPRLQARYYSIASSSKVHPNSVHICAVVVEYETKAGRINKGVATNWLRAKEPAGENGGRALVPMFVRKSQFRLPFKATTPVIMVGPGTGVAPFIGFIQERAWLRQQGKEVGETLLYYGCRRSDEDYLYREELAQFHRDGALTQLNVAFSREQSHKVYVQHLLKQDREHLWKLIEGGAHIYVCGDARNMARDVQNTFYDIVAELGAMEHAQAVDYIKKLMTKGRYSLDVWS
UniProt Q99575: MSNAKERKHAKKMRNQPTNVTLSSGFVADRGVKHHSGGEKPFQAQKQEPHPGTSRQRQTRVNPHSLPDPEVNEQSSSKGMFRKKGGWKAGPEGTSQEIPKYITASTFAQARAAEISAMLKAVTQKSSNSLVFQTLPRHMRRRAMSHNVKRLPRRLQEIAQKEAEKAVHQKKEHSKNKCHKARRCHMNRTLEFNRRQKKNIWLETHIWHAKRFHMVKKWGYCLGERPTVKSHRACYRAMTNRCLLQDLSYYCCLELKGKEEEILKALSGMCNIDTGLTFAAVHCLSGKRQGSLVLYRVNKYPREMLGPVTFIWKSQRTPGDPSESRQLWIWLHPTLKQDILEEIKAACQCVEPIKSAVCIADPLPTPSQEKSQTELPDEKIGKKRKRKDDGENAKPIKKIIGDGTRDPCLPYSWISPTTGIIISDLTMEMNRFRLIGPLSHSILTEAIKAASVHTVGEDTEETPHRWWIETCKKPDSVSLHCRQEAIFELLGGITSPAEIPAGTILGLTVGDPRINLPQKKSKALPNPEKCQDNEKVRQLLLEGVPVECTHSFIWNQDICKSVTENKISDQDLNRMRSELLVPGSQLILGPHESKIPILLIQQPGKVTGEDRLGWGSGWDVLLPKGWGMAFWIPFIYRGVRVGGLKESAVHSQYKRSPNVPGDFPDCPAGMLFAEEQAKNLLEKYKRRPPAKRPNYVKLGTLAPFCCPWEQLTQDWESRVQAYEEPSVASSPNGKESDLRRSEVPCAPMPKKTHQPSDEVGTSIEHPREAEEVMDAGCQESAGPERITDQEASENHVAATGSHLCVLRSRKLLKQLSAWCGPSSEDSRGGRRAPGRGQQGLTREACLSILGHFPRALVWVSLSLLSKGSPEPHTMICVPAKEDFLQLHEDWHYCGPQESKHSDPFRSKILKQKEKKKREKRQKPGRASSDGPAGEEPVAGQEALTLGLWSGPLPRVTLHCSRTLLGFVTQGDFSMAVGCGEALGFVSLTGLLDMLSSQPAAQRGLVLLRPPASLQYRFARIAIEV
UniProt P62937, whole entry, looked up: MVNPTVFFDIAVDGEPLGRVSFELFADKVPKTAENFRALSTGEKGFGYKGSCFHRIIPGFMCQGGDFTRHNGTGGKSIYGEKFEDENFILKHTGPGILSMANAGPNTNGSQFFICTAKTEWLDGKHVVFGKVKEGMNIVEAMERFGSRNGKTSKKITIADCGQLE
UniProt Q9P215: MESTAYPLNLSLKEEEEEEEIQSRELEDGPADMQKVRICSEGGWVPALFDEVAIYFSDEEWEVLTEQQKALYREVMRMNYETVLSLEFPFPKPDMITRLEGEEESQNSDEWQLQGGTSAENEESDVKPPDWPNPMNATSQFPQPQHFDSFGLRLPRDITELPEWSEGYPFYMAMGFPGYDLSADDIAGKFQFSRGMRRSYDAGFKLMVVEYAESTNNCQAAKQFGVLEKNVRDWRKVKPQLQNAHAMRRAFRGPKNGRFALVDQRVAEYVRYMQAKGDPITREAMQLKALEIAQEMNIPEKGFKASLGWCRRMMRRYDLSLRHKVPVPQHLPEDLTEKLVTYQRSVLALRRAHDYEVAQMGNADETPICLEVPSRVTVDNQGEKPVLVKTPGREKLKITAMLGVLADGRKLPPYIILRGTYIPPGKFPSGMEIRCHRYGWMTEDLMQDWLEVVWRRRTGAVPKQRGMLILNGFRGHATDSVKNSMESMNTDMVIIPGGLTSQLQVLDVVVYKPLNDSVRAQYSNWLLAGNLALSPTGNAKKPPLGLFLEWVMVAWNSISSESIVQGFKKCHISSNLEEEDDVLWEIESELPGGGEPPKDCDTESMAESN

Some of the results follow.

Compound in the assay: Cc1cc(ccc1-c1ccccc1)C(=O)N1CCCN(CC1)C(=O)CCl [compound 10]
Kind of assay: probe-labelled cysteine peptide fold change vs DMSO (competition) (log2 fold change); higher = less target engagement (more negative = stronger competition). The note with it: THP-1, incubation time: 4 h.
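Further: competitive profiling in live THP-1 cells: cysteine peptides tagged with an iodoacetamide desthiobiotin (IA-DTB) probe, intensity after compound treatment relative to DMSO-treated cells.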

In the case of “POLD3_Q15054_74_KENSGAQLHVTYLVSGSLIQNGHSCHK (UniProt Q15054)”, the “probe-labelled cysteine peptide fold change” value was -0.272 (10 µM) and 0.321 (50 µM).

With “PPIL3_Q9H2H8_25+40_TCENFLALCASNYYNGCIFHR (UniProt Q9H2H8)”, the “probe-labelled cysteine peptide fold change” value (10 µM) is -0.439 and the “probe-labelled cysteine peptide fold change” value (50 µM) was 0.104.

With “POLR3B_Q9NW08_272_AMGVESDQEIVQMIGTEEHVMAAFGPSLEECQK (UniProt Q9NW08)”, the “probe-labelled cysteine peptide fold change” value (10 µM) turned out to be 0.303 and the “probe-labelled cysteine peptide fold change” value (50 µM) was found to be 0.0384.

Regarding “POSTN_Q15063_44_GRDQGPNVCALQQILGTK (UniProt Q15063)”, the “probe-labelled cysteine peptide fold change” value (10 µM) is -0.519 and the “probe-labelled cysteine peptide fold change” value (50 µM) is -0.555.

Consider “POLR3B_Q9NW08_145_SSNCVLTGK (UniProt Q9NW08)”, for which the “probe-labelled cysteine peptide fold change” value is -0.0113 (10 µM) and -0.139 (50 µM).

As for “POLD1_P28340_713_LPCLEISQSVTGFGR (UniProt P28340)”, the “probe-labelled cysteine peptide fold change” value (50 µM) was -0.108.

On to “POLR2H_P52434_30_LHCESESFK (UniProt P52434)”, for which the “probe-labelled cysteine peptide fold change” value stood at 0.126 (10 µM) and 0.177 (50 µM).

In the case of “POR_P16435_445_HILAILQDCPSLRPPIDHLCELLPR (UniProt P16435)”, the “probe-labelled cysteine peptide fold change” value runs as follows: (10 µM) -0.0429; (50 µM) 0.0829.

Regarding “POP1_Q99575_745_RSEVPCAPMPK (UniProt Q99575)”, the “probe-labelled cysteine peptide fold change” value runs as follows: (10 µM) -0.238; (50 µM) -0.307.

For “PPIA_P62937_161_ITIADCGQLE (UniProt P62937)”, the “probe-labelled cysteine peptide fold change” value reads like this: (10 µM) -0.286; (50 µM) 0.106.

As for “POLRMT_O00411_705_TVEGATQHQELLETCPPTALHGALDALTQLGNCAWR (UniProt O00411)”, the “probe-labelled cysteine peptide fold change” value was 0.0372 (10 µM) and -0.166 (50 µM).

With “POLR1B_Q9H9Y6_944_SAALHGLCHDATPFIFSEENSALEYFGEMLK (UniProt Q9H9Y6)”, the “probe-labelled cysteine peptide fold change” value is, setting by setting: (10 µM) 0.148; (50 µM) 0.418.

On to “POGK_Q9P215_369_RAHDYEVAQMGNADETPICLEVPSR (UniProt Q9P215)”, for which the “probe-labelled cysteine peptide fold change” value by setting is: (10 µM) -0.235; (50 µM) -0.172.
